Test results published in PubChem BioAssay AID2685 (National Center for Advancing Translational Sciences (NCATS), 2010).
About 2,100 (0.66%) of roughly 320,000 compounds were called active. The inconclusive results got no clear call from the source; some entries with a clear call stand among them for comparison. The call rests on the fitted dose curve; in most records, active means well fitted inhibition curve with a large enough effect in the signal ratio, with a control signal flat (not every such curve was filed as active); inconclusive means small, poorly fitted or top-dose-only effect, or effect the other way, or a change in a side signal; inactive means flat fitted curve, though single readings scatter; the % refers to the signal ratio. Where the call is inconclusive, the potency comes from a doubtful curve fit.

Test: qHTS Assay for Lipid Storage Modulators in Drosophila S3 Cells
Settings: BODIPY lipid droplet fluorescence, 18-24 h, cells fed with added oleic acid; lipid storage change, negative = inhibition: at 46.1 µM (top of the series) unless noted
How it was run: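 Laser-scanning cytometry quantifies lipid droplet accumulation (500–530 nm total intensity; droplet/cell object ratio) in oleic acid-fed (400 uM added) Drosophila S3 cells treated with a concentration series. 20 uM Triacsin C defined 100% inhibition.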
On the % scale 0 is the no-effect control and ±100 the full control effect; potency means the concentration at half of the fitted maximal effect.

SMILES	Potency	lipid storage change, negative = inhibition
O=C(Nc1ccccc1)C1CC=CCC1C(=O)OCC1CCCO1 (stereo not drawn)	inconclusive: 0.13 µM [falling, full curve]	
CC1CCCCC1NC(=O)CSc1nnnn1C (stereo not drawn)		inconclusive
COCCNC(=O)[C@@]1(C)C=C[C@@H](Cc2ccccc2)N1C(=O)c1ccccc1		inconclusive: 23.4%
CS(=O)(=O)c1cccc(-c2nnc(NC(=O)CCS(=O)(=O)c3ccccc3)o2)c1		inconclusive: 4.03%
COc1ccc(OC(C)C(=O)NCCC2=CCCCC2)cc1 (stereo not drawn)	inconclusive: 18.4 µM [falling, partial curve]	
O=C(CSc1ccc2nnc(-c3ccccn3)n2n1)N1CCN(c2ccccc2)CC1		inconclusive: -18.1%
COc1cccc(C2c3c(oc4cc(C)c(C)cc4c3=O)C(=O)N2CCCN(C)C)c1 (stereo not drawn)		inconclusive: 7.22%
CC1CCN(S(=O)(=O)c2ccc3c(c2)N(CC(=O)NCCCN2CC(C)CC(C)C2)C(=O)CS3)CC1 (stereo not drawn)	inconclusive: 25.9 µM [activator, single point]	
COc1ccc(CN2C(=O)c3ccccc3C2=O)cc1C(=O)N(C)CC(=O)Nc1c(C)cccc1C	inconclusive: 4.61 µM [falling, full curve, poor fit]	
O=[N+]([O-])c1cccc(/C([O-])=C(/C(=S)Nc2ccccc2)[n+]2ccccc2)c1		inconclusive: 27.4%
C/C=C(\C)CN1CCC(Oc2cc(C(=O)NC3CC3)ccc2OC)CC1		inconclusive: 13.2%
CCc1ccc(CN2CCC(n3nccc3NC(=O)Cc3ccccc3)CC2)o1	inconclusive: 6.51 µM [activator, single point]	
CC(C(=O)Nc1ccccc1)N(C)Cc1cccs1 (stereo not drawn)		inconclusive: 31.8%
COC(=O)C1CSc2[nH]c(=O)sc2C1c1ccc(OC)c(OC)c1 (stereo not drawn)		inactive: -1.45%
Cc1nccn1CCCNC(=O)CC1C(=O)NCCN1Cc1ccc(Cl)c(F)c1 (stereo not drawn)		inconclusive: -17.5%
O=C(Nc1ccc(O)c(C(=O)O)c1)c1ccc2c(c1)C(=O)N(CC1CCCO1)C2=O (stereo not drawn)		inconclusive: -127%
O=C(CSc1nnc(-c2ccncc2)n1C1CCCCC1)Nc1cccc(O)c1	inconclusive: 29.1 µM [activator, single point]	
COc1ccc(N/C=C\C(=O)c2ccc(C)cc2)cc1OC		inconclusive: 6.32%
O=C(NCCC(=O)N1CCCC1)c1ccccc1Cl	inconclusive: 0.326 µM [activator, full curve]	
CCOP(=O)(OCC)C(Nc1cccc(C(F)(F)F)c1)c1ccc(C)cc1 (stereo not drawn)		inconclusive: -25.8%
Cc1ccc(Nc2nc(N)nc(CSc3nccn3C)n2)c(C)c1	inconclusive: 0.082 µM [activator, full curve]	
Cc1ccnc(SCCn2c(N3CCN(C)CC3)nc3c2c(=O)n(C)c(=O)n3C)n1		inconclusive: -20.9%
Cc1ccc(NC(=O)CSc2nnc(-c3cnccn3)n2C)cc1C		inconclusive: 4.86%
O=C(N/N=C/c1c[nH]c2ccccc12)c1ccn[nH]1		inconclusive: 8.99%

4 structures out of the list, ordered by count of non-hydrogen atoms, smallest number first:
SMILES	Potency	lipid storage change, negative = inhibition
CC1CCCCC1NC(=O)CSc1nnnn1C (stereo not drawn)		inconclusive
COC(=O)C1CSc2[nH]c(=O)sc2C1c1ccc(OC)c(OC)c1 (stereo not drawn)		inactive: -1.45%
CCc1ccc(CN2CCC(n3nccc3NC(=O)Cc3ccccc3)CC2)o1	inconclusive: 6.51 µM [activator, single point]	
O=C(Nc1ccc(O)c(C(=O)O)c1)c1ccc2c(c1)C(=O)N(CC1CCCO1)C2=O (stereo not drawn)		inconclusive: -127%

Going on with the list.

SMILES	Potency	lipid storage change, negative = inhibition
Cc1ccc2c(c1)-c1c(cnn1CC(=O)N(Cc1ccco1)C1CCCCC1)CO2		inconclusive: 26.4%
COC(=O)[C@@]1(Cc2ccc(F)cc2)[C@H]2c3cc(C(=O)N(C)C)n(CCSCCO)c3C[C@H]2CN1C(=O)c1ccccc1		inconclusive: -1.14%
O=C(NN=C1CCCC1)c1cc(-c2ccccc2)n[nH]1		inconclusive: 18.9%
O=C(CNC(=O)c1cccc([N+](=O)[O-])c1)NC1CCCc2ccccc21 (stereo not drawn)		inconclusive: -39.1%
CCCC[C@@H](CNC)NC[C@H](Cc1ccc(O)cc1)NCCc1ccc(OCC)cc1		inconclusive: -12.5%
CC1CN(C(=O)COC(=O)c2c(Cl)cccc2Cl)CC(C)O1 (stereo not drawn)		inconclusive: 21.9%
O=S(=O)(NCCc1csc(-c2cccnc2)n1)c1cccc(F)c1	inconclusive: 0.092 µM [falling, full curve]	
O=C(NCc1ccc2c(c1)OCO2)C1CCN(C(=O)Nc2ccc(Cl)cc2)CC1	inconclusive: 1.84 µM [activator, partial curve]	
CCCCN1C(=O)C2NN=C(C(=O)OCC)C2C1=O (stereo not drawn)		inconclusive: 3.11%
O=C(/C=C/c1cc2c(cc1Br)OCO2)NCc1ccc(F)cc1	inconclusive: 0.0046 µM [activator, full curve, poor fit]	
O=C1C2C3c4ccccc4C(c4ccccc43)C2C(=O)N1c1cccnc1 (stereo not drawn)		inconclusive: -2.19%
O=c1sc2ccccc2c(N2CCCCC2)c1[N+](=O)[O-]		inconclusive: -53% [cytotoxic] [at 0.369 µM]
O=[N+]([O-])c1cc(/C=N\O)ccc1Oc1ccc(F)cc1		inconclusive: 5.13%
O=C(O)Cn1cc(/C=C/[N+](=O)[O-])c2ccccc21		inconclusive: 32.1%
COC(=O)Nc1nn(Cc2ccccc2F)cc1Br		inconclusive: 16.7%
O=C(NCCOC(=O)c1cccs1)c1cccnc1		inconclusive: 20.1%
CC(=O)Nc1sc(N/N=C\c2ccccc2)nc1-c1cccs1		inconclusive: 22.4%
O=C(NCC(c1ccccc1Cl)N1CCCC1)c1ccc(N2CCCC2=O)cc1 (stereo not drawn)		inconclusive
O=C(Cn1c(CN2CCCCC2)nc2ccccc2c1=O)Nc1ccccc1	inconclusive: 8.2 µM [activator, partial curve]	
N#CCC(=O)NCCCOC(=O)Nc1ccc(Cl)c(Cl)c1		inconclusive: 39.7%
COc1ccc2c(c1)OC[C@H]1[C@H]2N2C(=O)CN(Cc3ccc(C)cc3)C(=O)[C@@]2(C)[C@H]1c1ccccc1		inconclusive: 14.6%
COc1ccc(-c2nnc(SC(C)C(=O)Nc3nccs3)n2Cc2ccccc2)cc1OC (stereo not drawn)	inconclusive: 7.31 µM [falling, single point]	
O=C(Nc1ccc(Cl)cc1)c1cccc(OC(=S)N2CCOCC2)c1	inconclusive: 23.1 µM [falling, single point]	
C=CCn1c(CCNC(=O)c2ccccc2F)nnc1SCc1nc2ccccc2c(=O)[nH]1		inconclusive: 4.67%
